Consider one molecule from publication PMC8833133.

These are yes or no findings as the source states them, for the method shown. Binding seen in cells or lysates may run through a third protein. Some results given as binding are weak or reduced against the parent protein; the word gives no strength.

This assay deals with T1, Sorbin and SH3 domain-containing protein 2 (mouse (endogenous in mouse myocardial tissue)) (UniProt Q3UTJ2).
T1 sequence: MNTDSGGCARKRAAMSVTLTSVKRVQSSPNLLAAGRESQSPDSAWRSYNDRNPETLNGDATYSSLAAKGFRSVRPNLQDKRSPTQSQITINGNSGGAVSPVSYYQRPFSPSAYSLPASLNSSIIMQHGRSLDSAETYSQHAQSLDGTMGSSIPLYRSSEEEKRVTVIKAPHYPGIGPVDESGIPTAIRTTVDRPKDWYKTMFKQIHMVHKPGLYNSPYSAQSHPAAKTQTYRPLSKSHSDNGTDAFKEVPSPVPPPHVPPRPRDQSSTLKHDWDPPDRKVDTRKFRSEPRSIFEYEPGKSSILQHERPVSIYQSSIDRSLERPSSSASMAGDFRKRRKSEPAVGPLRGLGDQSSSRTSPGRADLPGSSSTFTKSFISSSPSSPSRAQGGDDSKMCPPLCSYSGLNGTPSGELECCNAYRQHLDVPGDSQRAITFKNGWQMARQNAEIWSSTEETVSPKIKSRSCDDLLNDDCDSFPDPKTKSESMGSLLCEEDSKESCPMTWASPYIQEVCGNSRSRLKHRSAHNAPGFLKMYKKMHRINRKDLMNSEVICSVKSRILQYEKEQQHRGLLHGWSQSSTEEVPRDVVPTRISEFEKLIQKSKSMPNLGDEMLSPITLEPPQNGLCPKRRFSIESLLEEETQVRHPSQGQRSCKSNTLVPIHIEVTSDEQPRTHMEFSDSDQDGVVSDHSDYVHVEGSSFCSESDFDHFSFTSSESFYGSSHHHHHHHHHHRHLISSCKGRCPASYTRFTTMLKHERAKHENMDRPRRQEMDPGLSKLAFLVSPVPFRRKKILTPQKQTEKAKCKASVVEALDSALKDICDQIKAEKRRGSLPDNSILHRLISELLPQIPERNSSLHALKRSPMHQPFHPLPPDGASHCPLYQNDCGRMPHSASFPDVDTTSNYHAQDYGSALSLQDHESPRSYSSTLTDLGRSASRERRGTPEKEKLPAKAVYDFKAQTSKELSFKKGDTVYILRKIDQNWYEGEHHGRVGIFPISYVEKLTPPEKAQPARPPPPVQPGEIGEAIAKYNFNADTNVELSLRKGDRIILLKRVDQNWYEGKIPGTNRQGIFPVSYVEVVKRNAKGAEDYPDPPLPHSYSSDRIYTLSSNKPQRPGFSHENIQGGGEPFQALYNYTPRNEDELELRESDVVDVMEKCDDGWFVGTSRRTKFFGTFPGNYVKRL
In words: co-IP; heart tissue lysate; Pierce Classic Magnetic IP/Co-IP Kit; IP with rabbit polyclonal anti-SORBS2 or anti-YWHAQ, overnight; immunoblot with anti-SORBS2 and anti-YWHAQ. For orientation: A western blot detects proteins with antibodies after separation by electrophoresis.

B1: YWHAQ (protein, UniProt P68254 1-245)
chain: MEKTELIQKAKLAEQAERYDDMATCMKAVTEQGAELSNEERNLLSVAYKNVVGGRRSAWRVISSIEQKTDTSDKKLQLIKDYREKVESELRSICTTVLELLDKYLIANATNPESKVFYLKMKGDYFRYLAEVACGDDRKQTIENSQGAYQEAFDISKKEMQPTHPIRLGLALNFSVFYYEILNNPELACTLAKTAFDEAIAELDTLNEDSYKDSTLIMQLLRDNLTLWTSDSAGEECDAAEGAEN
Turning to B1, the binding entry was “binds”.
